From PMC5603515
These are yes or no findings as the source states them, for the method shown. In cells and extracts the contact can be indirect. Some binding calls cover weakened binding; strength is not graded here.

Chains of the proteins cited; added tags and fusions are not shown. Residues count along the entry.
UniProt Q64512: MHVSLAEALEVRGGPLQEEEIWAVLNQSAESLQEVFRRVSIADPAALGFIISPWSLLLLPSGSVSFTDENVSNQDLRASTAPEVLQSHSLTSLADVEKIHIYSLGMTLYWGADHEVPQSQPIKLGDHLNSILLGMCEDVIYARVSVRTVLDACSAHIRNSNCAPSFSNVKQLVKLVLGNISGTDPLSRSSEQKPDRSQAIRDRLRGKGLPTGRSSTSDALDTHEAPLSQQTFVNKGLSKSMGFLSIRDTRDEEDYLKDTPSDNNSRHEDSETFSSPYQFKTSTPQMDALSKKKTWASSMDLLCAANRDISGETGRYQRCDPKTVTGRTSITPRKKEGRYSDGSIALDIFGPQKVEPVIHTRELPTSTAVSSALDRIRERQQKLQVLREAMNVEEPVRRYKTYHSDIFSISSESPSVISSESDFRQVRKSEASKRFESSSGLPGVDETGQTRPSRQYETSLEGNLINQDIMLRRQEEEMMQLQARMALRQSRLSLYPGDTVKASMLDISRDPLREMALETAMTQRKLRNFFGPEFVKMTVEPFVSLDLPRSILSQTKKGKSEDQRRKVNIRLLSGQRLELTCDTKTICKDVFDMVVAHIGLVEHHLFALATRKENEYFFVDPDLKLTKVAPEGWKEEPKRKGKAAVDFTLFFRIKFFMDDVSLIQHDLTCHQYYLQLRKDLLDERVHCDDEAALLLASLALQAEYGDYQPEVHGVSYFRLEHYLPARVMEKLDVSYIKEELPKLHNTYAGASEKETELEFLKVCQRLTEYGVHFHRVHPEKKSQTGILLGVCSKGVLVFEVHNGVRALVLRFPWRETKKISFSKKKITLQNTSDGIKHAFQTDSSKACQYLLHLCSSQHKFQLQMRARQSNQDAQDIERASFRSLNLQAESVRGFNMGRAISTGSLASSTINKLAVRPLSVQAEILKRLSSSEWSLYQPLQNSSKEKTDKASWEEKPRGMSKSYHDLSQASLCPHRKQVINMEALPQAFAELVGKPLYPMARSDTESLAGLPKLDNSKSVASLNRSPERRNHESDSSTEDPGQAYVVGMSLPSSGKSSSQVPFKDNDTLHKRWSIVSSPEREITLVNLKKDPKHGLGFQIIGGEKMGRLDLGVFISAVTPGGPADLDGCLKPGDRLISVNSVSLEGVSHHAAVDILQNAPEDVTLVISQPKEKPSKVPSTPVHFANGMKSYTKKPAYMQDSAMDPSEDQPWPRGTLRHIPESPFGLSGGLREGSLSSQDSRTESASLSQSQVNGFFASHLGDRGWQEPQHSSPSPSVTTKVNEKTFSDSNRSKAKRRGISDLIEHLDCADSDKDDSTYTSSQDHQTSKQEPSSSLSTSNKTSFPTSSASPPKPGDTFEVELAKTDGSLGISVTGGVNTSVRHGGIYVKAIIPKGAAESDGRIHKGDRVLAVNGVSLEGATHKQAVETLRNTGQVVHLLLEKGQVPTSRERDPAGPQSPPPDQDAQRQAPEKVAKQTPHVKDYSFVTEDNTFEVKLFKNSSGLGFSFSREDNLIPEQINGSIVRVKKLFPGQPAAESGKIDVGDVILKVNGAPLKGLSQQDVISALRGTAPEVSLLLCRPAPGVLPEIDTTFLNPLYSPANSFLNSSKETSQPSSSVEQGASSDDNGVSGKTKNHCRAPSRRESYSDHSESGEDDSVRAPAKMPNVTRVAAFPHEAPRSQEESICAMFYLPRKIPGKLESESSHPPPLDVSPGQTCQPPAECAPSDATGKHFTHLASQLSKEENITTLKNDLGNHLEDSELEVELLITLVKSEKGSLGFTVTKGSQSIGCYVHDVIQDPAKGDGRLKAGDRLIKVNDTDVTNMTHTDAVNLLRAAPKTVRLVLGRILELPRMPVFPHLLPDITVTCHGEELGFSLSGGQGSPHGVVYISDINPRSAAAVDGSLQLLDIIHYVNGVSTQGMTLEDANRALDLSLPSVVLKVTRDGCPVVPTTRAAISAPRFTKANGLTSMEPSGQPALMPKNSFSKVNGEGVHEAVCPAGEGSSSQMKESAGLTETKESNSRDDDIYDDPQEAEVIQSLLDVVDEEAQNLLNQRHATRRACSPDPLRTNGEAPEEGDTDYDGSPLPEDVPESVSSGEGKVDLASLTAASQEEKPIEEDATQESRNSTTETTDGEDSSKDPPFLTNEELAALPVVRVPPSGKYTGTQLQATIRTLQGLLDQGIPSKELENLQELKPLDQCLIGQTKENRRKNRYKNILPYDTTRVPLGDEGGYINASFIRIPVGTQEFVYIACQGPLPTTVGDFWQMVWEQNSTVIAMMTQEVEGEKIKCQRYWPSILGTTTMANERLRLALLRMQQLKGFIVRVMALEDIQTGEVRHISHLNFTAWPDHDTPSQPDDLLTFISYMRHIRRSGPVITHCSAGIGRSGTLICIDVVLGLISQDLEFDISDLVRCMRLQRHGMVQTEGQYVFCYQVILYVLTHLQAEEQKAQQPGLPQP
UniProt P00520: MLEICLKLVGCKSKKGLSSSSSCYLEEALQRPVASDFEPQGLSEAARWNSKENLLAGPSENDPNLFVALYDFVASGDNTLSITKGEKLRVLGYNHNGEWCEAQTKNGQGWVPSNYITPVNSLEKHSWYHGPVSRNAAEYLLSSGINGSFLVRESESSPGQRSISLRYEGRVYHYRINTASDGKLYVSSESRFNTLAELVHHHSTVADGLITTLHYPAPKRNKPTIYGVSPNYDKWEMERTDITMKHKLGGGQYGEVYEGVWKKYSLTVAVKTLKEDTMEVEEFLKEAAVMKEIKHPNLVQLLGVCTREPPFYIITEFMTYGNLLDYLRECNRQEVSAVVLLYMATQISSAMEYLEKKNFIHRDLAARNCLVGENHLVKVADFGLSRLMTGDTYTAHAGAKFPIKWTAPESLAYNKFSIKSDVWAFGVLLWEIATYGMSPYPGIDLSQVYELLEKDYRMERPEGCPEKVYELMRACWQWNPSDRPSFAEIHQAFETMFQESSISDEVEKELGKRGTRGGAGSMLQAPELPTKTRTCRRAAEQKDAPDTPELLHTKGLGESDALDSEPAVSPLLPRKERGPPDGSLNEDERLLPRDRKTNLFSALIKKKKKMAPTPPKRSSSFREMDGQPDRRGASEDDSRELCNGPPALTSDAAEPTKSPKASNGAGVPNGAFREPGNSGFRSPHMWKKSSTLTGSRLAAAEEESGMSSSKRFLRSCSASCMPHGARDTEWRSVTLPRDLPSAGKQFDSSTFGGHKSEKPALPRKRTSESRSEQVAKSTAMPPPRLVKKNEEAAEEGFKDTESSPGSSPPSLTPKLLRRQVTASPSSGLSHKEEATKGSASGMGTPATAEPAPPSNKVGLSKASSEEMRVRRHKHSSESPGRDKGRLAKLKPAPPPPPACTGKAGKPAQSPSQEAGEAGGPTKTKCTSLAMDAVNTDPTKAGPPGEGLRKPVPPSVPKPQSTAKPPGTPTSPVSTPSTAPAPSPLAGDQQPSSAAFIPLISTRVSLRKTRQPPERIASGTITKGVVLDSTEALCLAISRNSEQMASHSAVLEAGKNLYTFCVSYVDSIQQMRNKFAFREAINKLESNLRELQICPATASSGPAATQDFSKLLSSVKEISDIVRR
UniProt O35350: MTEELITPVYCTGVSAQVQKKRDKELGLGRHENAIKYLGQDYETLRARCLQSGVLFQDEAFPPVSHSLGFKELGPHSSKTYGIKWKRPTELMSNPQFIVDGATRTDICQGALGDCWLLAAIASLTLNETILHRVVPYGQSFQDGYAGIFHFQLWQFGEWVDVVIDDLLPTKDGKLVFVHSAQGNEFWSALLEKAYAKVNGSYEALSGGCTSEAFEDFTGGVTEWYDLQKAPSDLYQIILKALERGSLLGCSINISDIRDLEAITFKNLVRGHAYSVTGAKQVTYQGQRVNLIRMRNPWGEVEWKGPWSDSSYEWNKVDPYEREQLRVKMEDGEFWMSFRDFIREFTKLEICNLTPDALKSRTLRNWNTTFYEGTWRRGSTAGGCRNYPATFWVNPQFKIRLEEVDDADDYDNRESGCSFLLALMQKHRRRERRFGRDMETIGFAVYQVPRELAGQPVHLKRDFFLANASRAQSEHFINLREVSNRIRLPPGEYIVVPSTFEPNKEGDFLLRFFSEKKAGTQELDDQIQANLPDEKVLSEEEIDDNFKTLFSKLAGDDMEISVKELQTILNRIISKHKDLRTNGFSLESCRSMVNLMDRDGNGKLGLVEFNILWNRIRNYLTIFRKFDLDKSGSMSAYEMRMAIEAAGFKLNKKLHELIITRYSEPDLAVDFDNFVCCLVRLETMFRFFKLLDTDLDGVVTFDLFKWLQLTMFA
UniProt O08529, residues 20-700: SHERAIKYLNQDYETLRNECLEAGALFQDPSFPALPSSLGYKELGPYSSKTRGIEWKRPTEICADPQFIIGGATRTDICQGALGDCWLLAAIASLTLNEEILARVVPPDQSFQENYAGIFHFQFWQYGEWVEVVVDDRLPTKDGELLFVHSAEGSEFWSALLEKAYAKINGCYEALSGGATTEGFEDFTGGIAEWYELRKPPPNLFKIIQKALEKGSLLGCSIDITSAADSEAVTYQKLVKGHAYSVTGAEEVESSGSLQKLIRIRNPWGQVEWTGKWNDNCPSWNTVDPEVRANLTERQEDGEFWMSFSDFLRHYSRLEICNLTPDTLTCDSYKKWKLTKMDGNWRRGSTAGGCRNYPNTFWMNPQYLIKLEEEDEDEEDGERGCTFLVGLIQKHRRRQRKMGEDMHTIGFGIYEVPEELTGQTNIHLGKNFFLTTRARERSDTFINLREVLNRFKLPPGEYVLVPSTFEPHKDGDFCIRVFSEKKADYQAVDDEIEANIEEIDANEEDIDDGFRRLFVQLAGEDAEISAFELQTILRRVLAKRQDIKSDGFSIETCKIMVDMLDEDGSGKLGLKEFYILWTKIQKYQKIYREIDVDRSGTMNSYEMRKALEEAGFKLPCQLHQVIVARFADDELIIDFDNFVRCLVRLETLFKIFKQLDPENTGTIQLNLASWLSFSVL

Tests used:
[1] = biological target: tyrosine phosphatase PTPN13 (mouse (endogenous in mouse brain)) (UniProt Q64512); assay: co-IP; PTPN13 immunoprecipitated with anti-PTPN13 antibody from P2 homogenates of mouse brain under non-denaturing conditions (Pierce Classic IP Kit); rabbit IgG as negative control; with or without 10 uM calpain-2 C-terminal peptide for 1 h before co-IP
[2] = biological target: tyrosine phosphatase PTPN13 (mouse (endogenous in mouse brain)) (UniProt Q64512); assay: co-IP; competition: synthetic calpain-2 C-terminal peptide (10 uM, 1 h) added to P2 homogenates of mouse brain before immunoprecipitation of PTPN13; calpain-2 in the precipitate read by blot; only the binder purified

Molecule | binding [1] | binding [2]
c-Abl (from UniProt P00520 1-1123) (enzyme) | binds | –
calpain-1 (from UniProt O35350 1-713) (enzyme) | no binding | –
calpain-2 (from UniProt O08529 20-700) (enzyme) | binds | –
TIQLNLASWLSFSVL [calpain-2 C-terminal peptide] | – | binds
